Measurements as given in article PMC10877634.
Results are given in words; binding and its absence hold for the method and conditions named. In cells and extracts the contact can be indirect. Some binding calls cover weakened binding; strength is not graded here.

By UniProt entry, the sequences of proteins in these tests, tags left out.
UniProt P05198: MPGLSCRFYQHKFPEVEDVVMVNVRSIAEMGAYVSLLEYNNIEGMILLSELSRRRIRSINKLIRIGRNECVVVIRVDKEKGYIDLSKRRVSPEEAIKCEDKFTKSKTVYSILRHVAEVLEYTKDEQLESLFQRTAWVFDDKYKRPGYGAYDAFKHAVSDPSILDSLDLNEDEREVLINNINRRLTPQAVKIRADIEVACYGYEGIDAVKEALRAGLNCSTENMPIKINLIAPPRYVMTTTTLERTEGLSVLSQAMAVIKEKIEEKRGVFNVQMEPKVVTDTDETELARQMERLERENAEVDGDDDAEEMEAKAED
UniProt Q9UNE7: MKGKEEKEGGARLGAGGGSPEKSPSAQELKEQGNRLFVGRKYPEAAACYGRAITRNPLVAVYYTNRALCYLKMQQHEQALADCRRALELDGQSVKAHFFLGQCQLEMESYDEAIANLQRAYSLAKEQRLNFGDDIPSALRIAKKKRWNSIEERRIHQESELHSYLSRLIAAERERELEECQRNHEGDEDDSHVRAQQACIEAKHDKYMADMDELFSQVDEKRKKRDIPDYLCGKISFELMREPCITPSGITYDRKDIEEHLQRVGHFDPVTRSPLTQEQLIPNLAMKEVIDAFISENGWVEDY

Biological target: FLAG-tagged eukaryotic translation initiation factor 2 subunit α (human) (UniProt P05198)
Assay: co-IP; HEK293T and H1299 cells transfected for 48 h; 1 mg RIPA lysate with 10 μl anti-Flag M2 agarose, 4 °C, 4.5 h, washed with TBS; blot with anti-CHIP antibody

binding	Substance
binds	carboxyl terminus of the HSC70-interaction protein (endogenous) (from UniProt Q9UNE7 1-303) (enzyme)
binds	carboxyl terminus of the HSC70-interaction protein (exogenous) (from UniProt Q9UNE7 1-303) (enzyme)
